Laboratory results reported in paper PMC11288445.

Tests used:
[1] = target: 6xHis-TGMV AL2 (tomato golden mosaic virus AL2 protein, N-terminal six-histidine tag) (tomato golden mosaic virus); experiment: far-Western, overlay or dot blot; 6xHis-tagged proteins resolved on 4-20% gels and transferred to nitrocellulose; blots overlayed with 15 μg soluble protein extracts from E. coli expressing GST or GST-TCP24 overnight at 4°C; detected with anti-GST antibody; only the target purified
[2] = target: FLAG-AL2 (TGMV AL2 with N-terminal FLAG, expressed from pTRBO) (tomato golden mosaic virus); experiment: co-IP; FLAG-AL2 co-expressed with GST-tagged proteins in N. benthamiana leaves, 48 h; tissue fixed with formaldehyde, chromatin purified and sonicated; IP with anti-FLAG M2 agarose overnight at 4°C, washes up to 500 mM NaCl; blot with anti-GST

B1: GST-TCP24 (Arabidopsis thaliana TCP24, N-terminal glutathione-S-transferase fusion, from E. coli) (protein, UniProt Q9C758 1-324)
chain: MEVDEDIELQKHQEQQSRKLQRFSEDNTGLMRNWNNPSSRIIRVSRASGGKDRHSKVLTSKGLRDRRIRLSVATAIQFYDLQDRLGFDQPSKAVEWLINAASDSITDLPLLNTNFDHLDQNQNQTKSACSSGTSESSLLSLSRTEIRGKARERARERTAKDRDKDLQNAHSSFTQLLTGGFDQQPSNRNWTGGSDCFNPVQLQIPNSSSQEPMNHPFSFVPDYNFGISSSSSAINGGYSSRGTLQSNSQSLFLNNNNNITQRSSISSSSSSSSPMDSQSISFFMATPPPLDHHNHQLPETFDGRLYLYYGEGNRSSDDKAKERR
binding [1]: binds

B2: GST-TCP24 (Arabidopsis thaliana TCP24, N-terminal GST fusion, expressed from pTRBO in N. benthamiana) (protein, UniProt Q9C758 1-324)
chain: B1 chain
binding [2]: binds

No constants are given. Whether binding was seen depends on the method and setting. A result given as binding can be weak or reduced; the word gives no strength. Where a sequence is shown, tags or fusion partners need not be part of it. For some assays here: Binding seen in cells or lysates may run through a third protein.
